Assay results reported in patent US7261876B2 (Bracco International BV, priority 2002, dated 2007).

Test: general procedure: Fmoc solid-phase peptide synthesis; NovaSyn TGR (Rink amide) resin (0.2 mmol/g); HOBt/DIC; HBTU/HOBt/DIEA
Settings: whole synthesis, scale 0.25 mmol

Ac-AGPTWEEDDWYYKWLFGTGGGK-NH2 (6–13 lactam)
isolated mass: 8 mg
